Source: patent US8841298B2, “Substituted pyrano[2,3-B]pyrazines as herbicides” (BASF SE, priority 2009, dated 2014)
Some entries share one result that the patent states for a list of compounds.

Key:
Settings in all cases: post-emergence method, application rate 0.5 kg/ha, scale from 0 to 100
[1] = test system: CHEAL; assay: greenhouse post-emergence herbicidal test against CHEAL; assay type: in vivo, Chenopodium album
[2] = test system: ECHCG; assay: greenhouse post-emergence herbicidal test against ECHCG; assay type: in vivo, Echinochloa crus-galli
[3] = test system: SETVI; assay: greenhouse post-emergence herbicidal test against SETVI; assay type: in vivo, Setaria viridis

8-hydroxy-7-o-tolylpyrano[2,3-b]pyrazin-6-one [Compound I-2]
herbicidal activity against CHEAL [1]: very good herbicidal activity (a very good herbicidal activity is given at values of at least 85) | herbicidal activity against ECHCG [2]: good herbicidal activity (A good herbicidal activity is given at values of at least 70) | herbicidal activity against SETVI [3]: very good herbicidal activity (a very good herbicidal activity is given at values of at least 85)
